Results: the supplement of paper PMC10849652
This is one part of the list.

The chains behind the UniProt entries cited, without tags or fusion partners. Where a name states a change or a piece, a line headed by the entry shows the natural chain unless it says otherwise.
UniProt O95870: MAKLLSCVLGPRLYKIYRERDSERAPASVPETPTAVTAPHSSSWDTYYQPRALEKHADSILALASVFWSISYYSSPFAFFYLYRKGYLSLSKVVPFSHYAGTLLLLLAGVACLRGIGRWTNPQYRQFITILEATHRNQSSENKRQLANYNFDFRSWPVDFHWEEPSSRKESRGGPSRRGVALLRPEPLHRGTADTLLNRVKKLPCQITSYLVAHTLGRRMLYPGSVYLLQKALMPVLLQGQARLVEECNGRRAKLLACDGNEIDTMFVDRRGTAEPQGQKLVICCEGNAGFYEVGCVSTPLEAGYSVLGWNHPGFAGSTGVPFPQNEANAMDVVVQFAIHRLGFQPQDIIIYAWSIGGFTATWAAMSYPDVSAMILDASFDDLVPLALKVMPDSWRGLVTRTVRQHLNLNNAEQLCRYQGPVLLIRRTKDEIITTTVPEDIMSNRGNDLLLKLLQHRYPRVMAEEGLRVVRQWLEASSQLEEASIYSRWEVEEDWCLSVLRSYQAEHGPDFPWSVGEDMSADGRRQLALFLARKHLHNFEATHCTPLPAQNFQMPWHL
UniProt O15440: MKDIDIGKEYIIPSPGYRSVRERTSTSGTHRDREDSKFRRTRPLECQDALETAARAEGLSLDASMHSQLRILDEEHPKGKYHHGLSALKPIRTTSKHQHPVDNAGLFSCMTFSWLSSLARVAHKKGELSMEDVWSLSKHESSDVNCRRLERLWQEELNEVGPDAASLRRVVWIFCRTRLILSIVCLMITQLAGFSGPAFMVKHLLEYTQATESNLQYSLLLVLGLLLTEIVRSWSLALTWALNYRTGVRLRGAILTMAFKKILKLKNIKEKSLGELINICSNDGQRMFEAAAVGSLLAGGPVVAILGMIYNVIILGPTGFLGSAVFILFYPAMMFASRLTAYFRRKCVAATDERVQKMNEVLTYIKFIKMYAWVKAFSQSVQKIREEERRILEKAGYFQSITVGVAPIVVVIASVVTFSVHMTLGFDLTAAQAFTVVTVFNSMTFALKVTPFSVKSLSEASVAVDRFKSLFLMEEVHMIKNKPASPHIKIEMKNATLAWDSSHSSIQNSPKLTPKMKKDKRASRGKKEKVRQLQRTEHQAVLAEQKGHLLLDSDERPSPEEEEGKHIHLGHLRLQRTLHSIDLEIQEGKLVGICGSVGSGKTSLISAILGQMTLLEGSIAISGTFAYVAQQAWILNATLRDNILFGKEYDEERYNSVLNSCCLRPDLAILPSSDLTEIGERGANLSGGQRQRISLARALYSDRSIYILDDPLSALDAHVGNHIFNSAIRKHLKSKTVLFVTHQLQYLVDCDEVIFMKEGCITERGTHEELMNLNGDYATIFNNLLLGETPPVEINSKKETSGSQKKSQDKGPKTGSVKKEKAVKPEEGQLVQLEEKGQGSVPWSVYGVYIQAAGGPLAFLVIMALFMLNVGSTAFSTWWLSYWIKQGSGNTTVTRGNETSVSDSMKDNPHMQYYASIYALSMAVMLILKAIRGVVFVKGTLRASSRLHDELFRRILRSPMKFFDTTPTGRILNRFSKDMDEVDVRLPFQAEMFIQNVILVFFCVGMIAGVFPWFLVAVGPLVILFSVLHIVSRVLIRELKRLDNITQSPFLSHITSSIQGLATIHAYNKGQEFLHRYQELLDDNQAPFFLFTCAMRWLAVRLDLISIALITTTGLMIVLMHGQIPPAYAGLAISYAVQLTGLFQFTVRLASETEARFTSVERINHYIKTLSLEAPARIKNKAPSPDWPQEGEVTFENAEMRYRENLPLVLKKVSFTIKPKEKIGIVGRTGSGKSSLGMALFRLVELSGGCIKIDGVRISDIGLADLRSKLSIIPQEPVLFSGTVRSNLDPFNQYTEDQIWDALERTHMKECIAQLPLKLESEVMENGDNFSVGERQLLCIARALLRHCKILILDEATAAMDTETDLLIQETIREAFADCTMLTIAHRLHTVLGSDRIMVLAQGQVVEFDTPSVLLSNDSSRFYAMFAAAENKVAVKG
UniProt Q9NX38: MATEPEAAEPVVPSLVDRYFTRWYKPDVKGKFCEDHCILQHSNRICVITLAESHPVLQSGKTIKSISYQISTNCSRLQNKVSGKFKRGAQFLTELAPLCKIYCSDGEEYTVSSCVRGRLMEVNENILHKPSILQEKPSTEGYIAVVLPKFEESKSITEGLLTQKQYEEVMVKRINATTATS
UniProt Q8N2K0: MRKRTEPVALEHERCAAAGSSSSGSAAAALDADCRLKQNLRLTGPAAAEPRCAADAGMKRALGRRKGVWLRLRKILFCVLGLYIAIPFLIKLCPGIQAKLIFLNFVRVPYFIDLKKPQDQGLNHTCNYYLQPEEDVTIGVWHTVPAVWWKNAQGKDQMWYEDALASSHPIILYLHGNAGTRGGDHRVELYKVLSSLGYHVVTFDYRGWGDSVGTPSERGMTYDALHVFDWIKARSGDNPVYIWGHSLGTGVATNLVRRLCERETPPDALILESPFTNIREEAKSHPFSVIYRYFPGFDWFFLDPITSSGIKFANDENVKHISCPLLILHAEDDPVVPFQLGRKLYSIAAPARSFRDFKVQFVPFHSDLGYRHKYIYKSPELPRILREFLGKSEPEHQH
UniProt Q99798: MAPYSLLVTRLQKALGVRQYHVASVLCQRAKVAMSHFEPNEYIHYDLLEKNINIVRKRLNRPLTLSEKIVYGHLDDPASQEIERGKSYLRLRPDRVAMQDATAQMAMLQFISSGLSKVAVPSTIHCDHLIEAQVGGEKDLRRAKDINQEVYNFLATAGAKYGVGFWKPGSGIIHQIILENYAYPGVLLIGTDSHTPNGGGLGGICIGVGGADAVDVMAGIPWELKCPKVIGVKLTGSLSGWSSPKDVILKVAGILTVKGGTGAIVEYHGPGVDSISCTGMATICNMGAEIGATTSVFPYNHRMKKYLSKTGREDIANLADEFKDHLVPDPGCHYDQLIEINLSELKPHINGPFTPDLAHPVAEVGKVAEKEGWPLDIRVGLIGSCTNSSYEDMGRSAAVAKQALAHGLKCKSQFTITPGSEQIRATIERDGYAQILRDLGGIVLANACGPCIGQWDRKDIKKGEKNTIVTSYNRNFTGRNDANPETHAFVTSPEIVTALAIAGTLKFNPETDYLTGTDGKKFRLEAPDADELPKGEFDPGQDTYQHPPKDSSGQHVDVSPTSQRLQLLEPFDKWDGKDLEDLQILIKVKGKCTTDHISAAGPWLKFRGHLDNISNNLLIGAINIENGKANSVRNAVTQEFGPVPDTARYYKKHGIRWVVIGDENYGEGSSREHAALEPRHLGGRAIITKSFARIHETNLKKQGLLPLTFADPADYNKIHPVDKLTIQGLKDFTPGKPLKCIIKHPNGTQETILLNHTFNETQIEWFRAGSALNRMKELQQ
UniProt Q9BR61: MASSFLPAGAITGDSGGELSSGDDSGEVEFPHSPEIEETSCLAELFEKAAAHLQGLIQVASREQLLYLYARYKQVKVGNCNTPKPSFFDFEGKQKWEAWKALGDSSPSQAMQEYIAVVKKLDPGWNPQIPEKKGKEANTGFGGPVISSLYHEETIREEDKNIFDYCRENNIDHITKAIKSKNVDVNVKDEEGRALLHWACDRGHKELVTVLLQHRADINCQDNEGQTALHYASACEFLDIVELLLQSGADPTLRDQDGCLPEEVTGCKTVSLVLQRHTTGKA
UniProt Q96QU6: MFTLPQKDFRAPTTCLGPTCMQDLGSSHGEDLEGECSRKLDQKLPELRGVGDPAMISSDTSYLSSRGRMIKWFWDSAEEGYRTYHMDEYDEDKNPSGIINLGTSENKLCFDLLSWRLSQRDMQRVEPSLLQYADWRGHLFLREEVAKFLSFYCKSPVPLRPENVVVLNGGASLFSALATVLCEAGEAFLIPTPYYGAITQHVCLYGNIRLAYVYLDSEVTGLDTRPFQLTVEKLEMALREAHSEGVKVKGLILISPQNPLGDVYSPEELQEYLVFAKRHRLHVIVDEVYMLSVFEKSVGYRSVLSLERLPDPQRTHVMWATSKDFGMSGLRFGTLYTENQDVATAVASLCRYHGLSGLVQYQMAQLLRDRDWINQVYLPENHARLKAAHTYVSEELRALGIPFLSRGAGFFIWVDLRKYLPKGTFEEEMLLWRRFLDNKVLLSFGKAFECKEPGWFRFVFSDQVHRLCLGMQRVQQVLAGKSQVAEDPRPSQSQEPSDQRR
UniProt Q9BWD1: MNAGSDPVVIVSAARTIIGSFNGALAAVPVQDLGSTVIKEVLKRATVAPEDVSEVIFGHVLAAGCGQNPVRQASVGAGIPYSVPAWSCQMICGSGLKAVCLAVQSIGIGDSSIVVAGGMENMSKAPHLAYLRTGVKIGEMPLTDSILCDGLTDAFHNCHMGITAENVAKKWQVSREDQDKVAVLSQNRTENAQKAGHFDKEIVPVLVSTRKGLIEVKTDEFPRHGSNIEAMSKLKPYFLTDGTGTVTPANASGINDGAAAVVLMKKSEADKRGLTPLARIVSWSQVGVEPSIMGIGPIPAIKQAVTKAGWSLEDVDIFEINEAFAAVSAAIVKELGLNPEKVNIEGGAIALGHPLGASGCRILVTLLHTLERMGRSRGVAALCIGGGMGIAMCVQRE
UniProt Q9NPJ3: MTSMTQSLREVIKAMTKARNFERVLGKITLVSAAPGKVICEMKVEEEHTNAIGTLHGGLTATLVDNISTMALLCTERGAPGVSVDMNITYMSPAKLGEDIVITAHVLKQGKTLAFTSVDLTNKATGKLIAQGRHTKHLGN
UniProt Q8IZP0: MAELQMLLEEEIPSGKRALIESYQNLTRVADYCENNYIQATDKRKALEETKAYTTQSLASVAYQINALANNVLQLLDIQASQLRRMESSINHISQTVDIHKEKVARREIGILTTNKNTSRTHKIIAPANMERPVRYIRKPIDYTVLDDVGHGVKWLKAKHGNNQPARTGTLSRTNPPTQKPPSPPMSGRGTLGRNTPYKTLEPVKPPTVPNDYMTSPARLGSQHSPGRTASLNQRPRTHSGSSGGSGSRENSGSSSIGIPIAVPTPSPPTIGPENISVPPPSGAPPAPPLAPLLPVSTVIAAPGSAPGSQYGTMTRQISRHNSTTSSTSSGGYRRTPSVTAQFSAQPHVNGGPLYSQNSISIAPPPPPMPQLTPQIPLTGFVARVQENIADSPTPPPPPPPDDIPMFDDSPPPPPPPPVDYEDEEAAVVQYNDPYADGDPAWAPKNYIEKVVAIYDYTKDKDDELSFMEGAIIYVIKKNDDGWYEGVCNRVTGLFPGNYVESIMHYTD
UniProt P42765: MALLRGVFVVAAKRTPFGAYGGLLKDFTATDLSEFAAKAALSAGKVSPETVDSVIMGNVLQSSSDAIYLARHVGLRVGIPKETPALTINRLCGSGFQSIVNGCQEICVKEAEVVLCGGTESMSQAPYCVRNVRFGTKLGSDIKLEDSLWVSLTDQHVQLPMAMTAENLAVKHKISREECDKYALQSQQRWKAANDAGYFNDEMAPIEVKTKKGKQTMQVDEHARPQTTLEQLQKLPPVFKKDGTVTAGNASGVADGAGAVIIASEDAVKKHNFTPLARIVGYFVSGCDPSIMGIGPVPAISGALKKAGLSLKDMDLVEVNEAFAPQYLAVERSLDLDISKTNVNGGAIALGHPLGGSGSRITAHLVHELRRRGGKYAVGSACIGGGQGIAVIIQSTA
UniProt Q9UG63: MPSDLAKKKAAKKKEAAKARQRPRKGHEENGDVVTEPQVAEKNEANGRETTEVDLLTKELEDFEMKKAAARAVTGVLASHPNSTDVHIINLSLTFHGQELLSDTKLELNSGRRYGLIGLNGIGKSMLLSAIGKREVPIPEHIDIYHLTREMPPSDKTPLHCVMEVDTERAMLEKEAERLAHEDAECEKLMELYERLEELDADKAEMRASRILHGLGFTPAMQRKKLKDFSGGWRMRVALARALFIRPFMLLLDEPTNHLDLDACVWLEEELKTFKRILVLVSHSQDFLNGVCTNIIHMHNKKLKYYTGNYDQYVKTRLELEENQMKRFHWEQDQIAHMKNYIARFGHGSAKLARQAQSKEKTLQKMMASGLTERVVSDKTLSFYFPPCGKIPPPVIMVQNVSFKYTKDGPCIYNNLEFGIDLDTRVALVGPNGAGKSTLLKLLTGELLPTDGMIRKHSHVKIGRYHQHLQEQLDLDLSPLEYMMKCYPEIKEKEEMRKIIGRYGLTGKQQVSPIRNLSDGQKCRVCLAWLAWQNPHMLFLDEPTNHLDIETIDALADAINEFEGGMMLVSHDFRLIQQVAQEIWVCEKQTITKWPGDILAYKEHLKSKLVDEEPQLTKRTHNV

Legend:
Test in all cases: log2 fold change, soluble protein after heating vs DMSO (PISA); higher = thermal stabilisation; K562 lysate, 10 uM; active = over 0.2 and 3.5 SD of the protein, either way, in both replicates (recomputed)
vemurafenib = compound: CCCS(=O)(=O)Nc1ccc(F)c(C(=O)c2c[nH]c3ncc(-c4ccc(Cl)cc4)cc23)c1F [vemurafenib]
Method in brief: (§1)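 Dounce homogenisation of K562 pellets in PBS pH 7.4 with 1 mM MgCl2 produced a crude extract, used at 1 mg/mL protein. Exposure to 10 μM compound lasted 30 min, and aliquots were then heated for 3 min across 48°C-58°C, pooled and brought to 0.5% NP-40 at 4°C. The supernatant after 21,000xg for 90 min was quantified by TMTpro 16plex LC-MS/MS with channel sums equalised. Duplicate values are given as log-two fold change in thermal stability relative to solvent controls.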

[1] = compound: CCCS(=O)(=O)Nc1ccc(F)c(C(=O)c2c[nH]c3ncc(Cl)cc23)c1F
Method in brief: as §1

barasertib = compound: CCN(CCCOc1ccc2c(Nc3cc(CC(=O)Nc4cccc(F)c4)[nH]n3)ncnc2c1)CCOP(=O)(O)O [barasertib]
Method in brief: as §1

[2] = compound: CC[C@@H]1C(=O)N(C)c2cnc(Nc3ccc(C(=O)NC4CCN(C)CC4)cc3OC)nc2N1C1CCCC1
Method in brief: as §1

volasertib = compound: CC[C@@H]1C(=O)N(C)c2cnc(Nc3ccc(C(=O)N[C@H]4CC[C@H](N5CCN(CC6CC6)CC5)CC4)cc3OC)nc2N1C(C)C [volasertib]
Method in brief: as §1

[3] = compound: CCn1c(C(=O)N(C2CC2)C2CC2)cc2c3c(ncn3C)c(Nc3cc(C)n(C)n3)nc21
Method in brief: as §1

[4] = compound: CCn1cc(-c2ccnc3[nH]c(-c4cccc(CN(C)C)c4)cc23)c(-c2ccc(NC(=O)N(C)C)cc2)n1
Method in brief: as §1

[5] = compound: CN1CCC(CNc2ccc3ncc(-c4cccc(OC(F)(F)F)c4)n3n2)CC1
Method in brief: as §1

saracatinib = compound: CN1CCN(CCOc2cc(OC3CCOCC3)c3c(Nc4c(Cl)ccc5c4OCO5)ncnc3c2)CC1 [saracatinib]
Method in brief: as §1

sotrastaurin = compound: CN1CCN(c2nc(C3=C(c4c[nH]c5ccccc45)C(=O)NC3=O)c3ccccc3n2)CC1 [sotrastaurin]
Method in brief: as §1

alvocidib = compound: CN1CC[C@H](c2c(O)cc(O)c3c(=O)cc(-c4ccccc4Cl)oc23)[C@H](O)C1 [alvocidib]
Method in brief: as §1

Tubastatin A = compound: CN1CCc2c(c3ccccc3n2Cc2ccc(C(=O)NO)cc2)C1 [Tubastatin A]
Method in brief: as §1

[6] = compound: CNC(=O)C1=CC=CC=C1NC2=NC(=NC=C2Cl)NC3=C(C=C(C=C3)N4CCOCC4)OC
Method in brief: as §1

defactinib = compound: CNC(=O)c1ccc(Nc2ncc(C(F)(F)F)c(NCc3nccnc3N(C)S(C)(=O)=O)n2)cc1 [defactinib]
Method in brief: as §1

[7] = compound: CNc1nc(-c2ccc3c(N)n[nH]c3c2)cc(N2C[C@@H](C(=O)NC3CCCCC3)CC[C@H]2C)n1
Method in brief: as §1

encorafenib = compound: COC(=O)N[C@@H](C)CNc1nccc(-c2cn(C(C)C)nc2-c2cc(Cl)cc(NS(C)(=O)=O)c2F)n1 [encorafenib]
Method in brief: as §1

[8] = compound: COC(=O)[C@H](CCSC)NC(=O)C1=C(C=C(C=C1)NC[C@H](CS)N)C2=CC=CC=C2
Method in brief: as §1

alisertib = compound: COc1cc(Nc2ncc3c(n2)-c2ccc(Cl)cc2C(c2c(F)cccc2OC)=NC3)ccc1C(=O)O [alisertib]
Method in brief: as §1

[9] = compound: COc1cc2nc(-c3cc(F)ccc3O)nc(N[C@@H]3CNC[C@H]3C(C)(C)O)c2cc1OC
Method in brief: as §1

gefitinib = compound: COc1cc2ncnc(Nc3ccc(F)c(Cl)c3)c2cc1OCCCN1CCOCC1 [gefitinib]
Method in brief: as §1

| Target | log2 fold change (vemurafenib) | log2 fold change [1] | log2 fold change (barasertib) | log2 fold change [2] | log2 fold change (volasertib) | log2 fold change [3] | log2 fold change [4] | log2 fold change [5] | log2 fold change (saracatinib) | log2 fold change (sotrastaurin) | log2 fold change (alvocidib) | log2 fold change (Tubastatin A) | log2 fold change [6] | log2 fold change (defactinib) | log2 fold change [7] | log2 fold change (encorafenib) | log2 fold change [8] | log2 fold change (alisertib) | log2 fold change [9] | log2 fold change (gefitinib) |
| --- | --- | --- | --- | --- | --- | --- | --- | --- | --- | --- | --- | --- | --- | --- | --- | --- | --- | --- | --- | --- |
| ABHD16A (UniProt O95870) | inactive: 0.074 | inactive: 0.012 | inactive: 0.026 | inactive: 0.141 | inactive: 0.002 | inactive: -0.059 | inactive: -0.001 | inactive: 0.019 | inactive: 0.021 | inactive: 0.051 | inactive: 0.036 | inactive: 0.066 | inactive: -0.077 | inactive: 0.009 | inactive: 0.054 | inactive: -0.074 | active: 0.245 | inactive: -0.029 | inactive: -0.004 | inactive: -0.021 |
| ABCC5 (UniProt O15440) | active: -0.603 | inactive: -0.001 | inactive: -0.034 | inactive: -0.067 | inactive: -0.136 | inactive: 0.145 | inactive: -0.137 | inactive: -0.022 | inactive: 0.013 | inactive: 0.018 | inactive: -0.12 | inactive: 0.121 | inactive: -0.002 | inactive: 0.125 | inactive: 0.008 | inactive: 0.165 | inactive: -0.032 | – | inactive: -0.012 | – |
| ABITRAM (UniProt Q9NX38) | inactive: 0.105 | inactive: 0.035 | inactive: -0.011 | inactive: -0.039 | inactive: 0.008 | inactive: -0.068 | inactive: -0.15 | inactive: 0.073 | inactive: -0.001 | inactive: 0.062 | inactive: -0.01 | inactive: -0.005 | inactive: -0.018 | inactive: 0.047 | inactive: -0.008 | inactive: 0.006 | inactive: -0.059 | inactive: -0.048 | inactive: -0.127 | inactive: 0.006 |
| AAK1, A0A096LP25 | inactive: -0.017 | inactive: 0.018 | inactive: -0.012 | inactive: 0.114 | inactive: 0.042 | inactive: -0.009 | inactive: -0.069 | inactive: 0.36 | inactive: 0.046 | inactive: 0.023 | inactive: 0.032 | inactive: -0.003 | inactive: 0.447 | inactive: 0.015 | inactive: 0.327 | inactive: -0.167 | inactive: -0.197 | inactive: -0.018 | inactive: -0.05 | inactive: -0.012 |
| ABHD12 isoform 2 (UniProt Q8N2K0) | inactive: -0.049 | inactive: 0.077 | inactive: -0.015 | inactive: 0.034 | inactive: 0.006 | inactive: -0.055 | inactive: 0.119 | inactive: -0.111 | inactive: -0.039 | inactive: 0.018 | inactive: 0.02 | inactive: 0.001 | inactive: 0.039 | inactive: -0.004 | inactive: 0.003 | inactive: 0.046 | inactive: -0.018 | inactive: -0.031 | inactive: -0.03 | inactive: -0.045 |
| ACO2 (UniProt Q99798) | inactive: 0.034 | inactive: -0.003 | inactive: -0.004 | inactive: 0.002 | inactive: -0.016 | inactive: -0.027 | inactive: -0.107 | inactive: 0.042 | inactive: -0.013 | inactive: 0.008 | inactive: -0.022 | inactive: 0.042 | inactive: -0.038 | inactive: -0.058 | inactive: -0.008 | inactive: -0.054 | inactive: 0.014 | inactive: 0.02 | inactive: -0.007 | inactive: 0.009 |
| ACBD6 (UniProt Q9BR61) | inactive: 0.028 | inactive: 0.035 | inactive: -0.006 | inactive: -0.025 | inactive: -0.082 | inactive: 0.013 | inactive: -0.009 | inactive: 0.006 | inactive: -0.015 | inactive: 0.014 | inactive: -0.009 | inactive: -0.15 | inactive: 0.056 | inactive: -0.005 | inactive: 0.016 | inactive: -0.003 | inactive: 0.051 | inactive: -0.006 | inactive: 0.016 | inactive: -0.022 |
| ACCS (UniProt Q96QU6) | inactive: 0.182 | inactive: 0.039 | inactive: 0.04 | inactive: 0.022 | inactive: 0.029 | inactive: -0.171 | inactive: -0.221 | inactive: 0.09 | inactive: 0.06 | inactive: -0.023 | inactive: -0.063 | inactive: 0 | inactive: -0.022 | inactive: -0.121 | inactive: 0.212 | inactive: 0.155 | inactive: -0.202 | inactive: 0.024 | inactive: 0.035 | inactive: -0.104 |
| ACAT2 (UniProt Q9BWD1) | inactive: 0.02 | inactive: -0.006 | inactive: -0.04 | inactive: 0.017 | inactive: 0.012 | inactive: -0.028 | inactive: 0 | inactive: 0.009 | inactive: 0.006 | inactive: -0.037 | inactive: 0.027 | inactive: 0.083 | inactive: 0.002 | inactive: 0.033 | inactive: 0.065 | inactive: -0.045 | inactive: -0.021 | inactive: 0.012 | inactive: 0.006 | inactive: -0.007 |
| AARS2 (UniProt Q5JTZ9) | inactive: 0.041 | inactive: -0.052 | inactive: 0.029 | inactive: -0.055 | inactive: -0.037 | inactive: 0.027 | inactive: 0.027 | inactive: -0.053 | inactive: 0.003 | inactive: 0.031 | inactive: 0.064 | inactive: -0.093 | inactive: -0.011 | inactive: -0.05 | inactive: -0.017 | inactive: 0.006 | inactive: 0.106 | inactive: 0.02 | inactive: -0.119 | inactive: -0.02 |
| ACOT13 (UniProt Q9NPJ3) | inactive: 0.012 | inactive: -0.013 | inactive: -0.035 | inactive: 0.029 | inactive: 0.02 | inactive: -0.004 | inactive: -0.032 | inactive: 0.043 | inactive: -0.011 | inactive: -0.006 | inactive: 0.008 | inactive: 0.061 | inactive: -0.029 | inactive: 0 | inactive: -0.009 | inactive: -0.012 | inactive: -0.012 | inactive: -0.039 | inactive: 0.011 | inactive: -0.036 |
| ACACA isoform 4 (UniProt Q13085) | inactive: 0.014 | inactive: 0.024 | inactive: 0.043 | inactive: -0.062 | inactive: -0.085 | inactive: 0.056 | inactive: -0.025 | inactive: -0.067 | inactive: 0.001 | inactive: 0.011 | inactive: 0.016 | inactive: -0.115 | inactive: -0.011 | inactive: -0.008 | inactive: -0.02 | inactive: 0.032 | inactive: -0.16 | inactive: 0.014 | inactive: 0 | inactive: -0.004 |
| ABI1 isoform 9 (UniProt Q8IZP0) | inactive: -0.021 | inactive: 0.005 | inactive: -0.01 | inactive: 0.052 | inactive: -0.038 | inactive: -0.001 | inactive: -0.116 | inactive: 0.217 | inactive: -0.029 | inactive: -0.019 | inactive: -0.096 | inactive: 0.053 | inactive: 0.005 | inactive: -0.038 | inactive: 0.025 | inactive: 0.003 | inactive: -0.057 | inactive: -0.02 | inactive: 0.018 | inactive: -0.015 |
| ACAA2 (UniProt P42765) | inactive: -0.025 | inactive: -0.002 | inactive: -0.007 | inactive: 0.057 | inactive: 0.021 | inactive: -0.021 | inactive: -0.018 | inactive: 0.039 | inactive: 0 | inactive: -0.001 | inactive: 0.025 | inactive: -0.012 | inactive: 0.011 | inactive: 0.028 | inactive: 0.059 | inactive: -0.01 | inactive: 0.013 | inactive: -0.002 | inactive: 0.002 | inactive: -0.012 |
| ABCF2 isoform 2 (UniProt Q9UG63) | inactive: 0.017 | inactive: 0.002 | inactive: -0.014 | inactive: -0.072 | inactive: -0.045 | inactive: 0.026 | inactive: -0.008 | inactive: -0.026 | inactive: 0 | inactive: 0.036 | inactive: 0.004 | inactive: -0.169 | inactive: -0.001 | inactive: -0.039 | inactive: 0.005 | inactive: -0.005 | inactive: 0.08 | inactive: 0.014 | inactive: 0.025 | inactive: -0.02 |
| AAMP (UniProt Q13685) | inactive: -0.001 | inactive: 0.026 | inactive: 0.006 | inactive: 0.002 | inactive: -0.002 | inactive: -0.012 | inactive: 0.074 | inactive: -0.022 | inactive: -0.038 | inactive: -0.038 | inactive: 0.012 | inactive: 0.045 | inactive: -0.009 | inactive: -0.041 | inactive: 0.019 | inactive: -0.008 | inactive: -0.022 | inactive: -0.019 | inactive: 0.01 | inactive: -0.021 |

Some of the entries so far, with bars between the fields:
Target | log2 fold change (vemurafenib) | log2 fold change [1] | log2 fold change (barasertib) | log2 fold change [2] | log2 fold change (volasertib) | log2 fold change [3] | log2 fold change [4] | log2 fold change [5] | log2 fold change (saracatinib) | log2 fold change (sotrastaurin) | log2 fold change (alvocidib) | log2 fold change (Tubastatin A) | log2 fold change [6] | log2 fold change (defactinib) | log2 fold change [7] | log2 fold change (encorafenib) | log2 fold change [8] | log2 fold change (alisertib) | log2 fold change [9] | log2 fold change (gefitinib)
ACCS (UniProt Q96QU6) | inactive: 0.182 | inactive: 0.039 | inactive: 0.04 | inactive: 0.022 | inactive: 0.029 | inactive: -0.171 | inactive: -0.221 | inactive: 0.09 | inactive: 0.06 | inactive: -0.023 | inactive: -0.063 | inactive: 0 | inactive: -0.022 | inactive: -0.121 | inactive: 0.212 | inactive: 0.155 | inactive: -0.202 | inactive: 0.024 | inactive: 0.035 | inactive: -0.104
ACAT2 (UniProt Q9BWD1) | inactive: 0.02 | inactive: -0.006 | inactive: -0.04 | inactive: 0.017 | inactive: 0.012 | inactive: -0.028 | inactive: 0 | inactive: 0.009 | inactive: 0.006 | inactive: -0.037 | inactive: 0.027 | inactive: 0.083 | inactive: 0.002 | inactive: 0.033 | inactive: 0.065 | inactive: -0.045 | inactive: -0.021 | inactive: 0.012 | inactive: 0.006 | inactive: -0.007
AARS2 (UniProt Q5JTZ9) | inactive: 0.041 | inactive: -0.052 | inactive: 0.029 | inactive: -0.055 | inactive: -0.037 | inactive: 0.027 | inactive: 0.027 | inactive: -0.053 | inactive: 0.003 | inactive: 0.031 | inactive: 0.064 | inactive: -0.093 | inactive: -0.011 | inactive: -0.05 | inactive: -0.017 | inactive: 0.006 | inactive: 0.106 | inactive: 0.02 | inactive: -0.119 | inactive: -0.02
ACOT13 (UniProt Q9NPJ3) | inactive: 0.012 | inactive: -0.013 | inactive: -0.035 | inactive: 0.029 | inactive: 0.02 | inactive: -0.004 | inactive: -0.032 | inactive: 0.043 | inactive: -0.011 | inactive: -0.006 | inactive: 0.008 | inactive: 0.061 | inactive: -0.029 | inactive: 0 | inactive: -0.009 | inactive: -0.012 | inactive: -0.012 | inactive: -0.039 | inactive: 0.011 | inactive: -0.036
